# Laboratory results: the supplement of paper PMC8728848
# Some of the results follow.
# B1: CcfD (Bacteroides vulgatus), A6KYX8 (protein)
# chain: MKYKNYFKSIIYLALGAFTLGSCEDFLDRQEDEKLTFDKIWESRNTTQQYWLNAMSFLPNENGSLQGDTEPYLGASDECTIAYDRQYRWINFGTWNPSQVPYYKMDHYYKGIRECNIFLQNVYKCSDPLVTKDQLDEWYWQTRFARAYYYFLMMRDYGPVFLLGDDLLDFTASTEELYRPRNTWDQCVNYVVSEMTQCAESGVVLQQSDLPAAKWGLATVGTCHAVISRLLLYSARPLFNGNKLYSTVKNPDAPDFPELSGVKLFPELDNTKWQKAAEAAKKLIDNPCYELYRAGNDNPYEDYYGVTHETWNKELIWTDRYNGLFSWGVGTVPTGVAGTAYGAVGPTQALVDAYAMNTGWYPITGYEADGTPIVEPLSGYELASELEKSSWIYPSGGWSNKADFEIEAPNMYKDREPRFYVTVFFGGNQWLHGNSATSISFAKGGNGNKSHDYPKSGYLCNRFYDHKLNSSEGQWGNITFPVFRLGEIYLNFIEAVLECKKNGVALDPSYEALAMEKWADLRKRAGLDPITSIYGQVSTEELIQLCRKERQIELAFERHRYFDTRTWMIATQTDNGKMYGMNTSCPLDAGMKGTETPDGFWERTAFETRVFQNKHYLYPFSQRELDRNKLLTQNYGW
# Key:
# Test in all cases: glycan array binding signal (z-score within array); higher = stronger binding
# Conditions in all cases: glycan notation: IUPAC condensed, linker removed
# [1] = target: Neu5Ac(a2-8)Neu5Ac
# Outline: (§1)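 Glycan array binding is given as a within-array Z-score, which can be read as non-binding when negative. The arrays, 3228 of them, came from the Consortium for Functional Glycomics database and were retained only where the protein sequence was available. Z-scores were averaged across arrays of the same protein sequence at different concentrations or buffers and across linkers.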
# [2] = target: Neu5Ac(a2-8)Neu5Ac(a2-3)Gal(b1-3)GalNAc(b1-4)[Neu5Ac(a2-3)]Gal(b1-4)Glc
# Outline: as §1
# [3] = target: Neu5Ac(a2-8)Neu5Ac(a2-3)Gal(b1-3)GalNAc(b1-4)[Neu5Ac(a2-8)Neu5Ac(a2-3)]Gal(b1-4)Glc
# Outline: as §1
# [4] = target: Neu5Ac(a2-8)Neu5Ac(a2-3)Gal(b1-4)Glc
# Outline: as §1
# [5] = target: Neu5Ac(a2-8)Neu5Ac(a2-3)Gal(b1-4)GlcNAc
# Outline: as §1
# [6] = target: Neu5Ac(a2-8)Neu5Ac(a2-3)[Gal(b1-3)GalNAc(b1-4)]Gal(b1-4)Glc
# Outline: as §1
# [7] = target: Neu5Ac(a2-8)Neu5Ac(a2-3)[GalNAc(b1-4)]Gal(b1-4)Glc
# Outline: as §1
# [8] = target: Neu5Ac(a2-8)Neu5Ac(a2-8)Neu5Ac
# Outline: as §1
# [9] = target: Neu5Ac(a2-8)Neu5Ac(a2-8)Neu5Ac(a2-3)Gal(b1-4)Glc
# Outline: as §1
# [10] = target: Neu5Ac(a2-8)Neu5Ac(a2-8)Neu5Ac(a2-3)[Gal(b1-3)GalNAc(b1-4)]Gal(b1-4)Glc
# Outline: as §1
# [11] = target: Neu5Ac(a2-8)Neu5Ac(a2-8)Neu5Ac(a2-3)[GalNAc(b1-4)]Gal(b1-4)Glc
# Outline: as §1
# [12] = target: Neu5Ac(a2-8)Neu5Ac(a2-8)Neu5Ac(a2-8)Neu5Ac(a2-3)[GalNAc(b1-4)]Gal(b1-4)Glc
# Outline: as §1
# [13] = target: Neu5Ac(a2-8)Neu5Gc(a2-3)Gal(b1-4)GlcNAc
# Outline: as §1
# [14] = target: Neu5Ac(b2-6)Gal(b1-4)GlcNAc
# Outline: as §1
# [15] = target: Neu5Ac(b2-6)GalNAc
# Outline: as §1
# [16] = target: Neu5Ac9Ac(a2-3)Gal(b1-3)GlcNAc
# Outline: as §1
# [17] = target: Neu5Ac9Ac(a2-3)Gal(b1-4)GlcNAc
# Outline: as §1
# [18] = target: Neu5Ac9Ac(a2-6)Gal(b1-4)GlcNAc
# Outline: as §1
# [19] = target: Neu5Gc(a2-3)Gal(b1-3)GlcNAc
# Outline: as §1
# [20] = target: Neu5Gc(a2-3)Gal(b1-3)[Fuc(a1-4)]GlcNAc
# Outline: as §1
# [21] = target: Neu5Gc(a2-3)Gal(b1-4)Glc
# Outline: as §1
# [22] = target: Neu5Gc(a2-3)Gal(b1-4)GlcNAc
# Outline: as §1
# [23] = target: Neu5Gc(a2-3)Gal(b1-4)GlcNAc(b1-3)Gal(b1-4)GlcNAc(b1-2)Man(a1-3)[Neu5Gc(a2-3)Gal(b1-4)GlcNAc(b1-3)Gal(b1-4)GlcNAc(b1-2)Man(a1-6)]Man(b1-4)GlcNAc(b1-4)GlcNAc
# Outline: as §1
# [24] = target: Neu5Gc(a2-3)Gal(b1-4)[Fuc(a1-3)]GlcNAc
# Outline: as §1
# [25] = target: Neu5Gc(a2-6)Gal(b1-4)GlcNAc
# Outline: as §1
# [26] = target: Neu5Gc(a2-6)GalNAc
# Outline: as §1
# [27] = target: Neu5Gc(a2-8)Neu5Ac(a2-3)Gal(b1-4)GlcNAc
# Outline: as §1
# [28] = target: Neu5Gc(a2-8)Neu5Gc(a2-3)Gal(b1-4)GlcNAc
# Outline: as §1
# [29] = target: Neu5Gc(a2-8)Neu5Gc(a2-3)Gal(b1-4)GlcNAc(b1-3)Gal(b1-4)GlcNAc
# Outline: as §1
# [30] = target: Neu5Gc(a2-8)Neu5Gc(a2-6)Gal(b1-4)GlcNAc
# Outline: as §1
# [31] = target: Neu5Gc(b2-6)Gal(b1-4)GlcNAc
# Outline: as §1
binder,measurement,setting,value
B1,glycan array binding signal (z-score),[1],-0.409
same,glycan array binding signal (z-score),[2],0.801
same,glycan array binding signal (z-score),[3],1.2
same,glycan array binding signal (z-score),[4],-1.16
same,glycan array binding signal (z-score),[5],0.521
same,glycan array binding signal (z-score),[6],-0.708
same,glycan array binding signal (z-score),[7],-0.566
same,glycan array binding signal (z-score),[8],0.331
same,glycan array binding signal (z-score),[9],-0.871
same,glycan array binding signal (z-score),[10],-0.454
same,glycan array binding signal (z-score),[11],-0.556
same,glycan array binding signal (z-score),[12],-0.256
same,glycan array binding signal (z-score),[13],-0.891
same,glycan array binding signal (z-score),[14],-0.256
same,glycan array binding signal (z-score),[15],-0.993
same,glycan array binding signal (z-score),[16],-0.5
same,glycan array binding signal (z-score),[17],-0.688
same,glycan array binding signal (z-score),[18],-0.256
same,glycan array binding signal (z-score),[19],-1.3
same,glycan array binding signal (z-score),[20],0.298
same,glycan array binding signal (z-score),[21],-0.912
same,glycan array binding signal (z-score),[22],-0.429
same,glycan array binding signal (z-score),[23],1.59
same,glycan array binding signal (z-score),[24],-0.373
same,glycan array binding signal (z-score),[25],0.486
same,glycan array binding signal (z-score),[26],-0.825
same,glycan array binding signal (z-score),[27],-0.815
same,glycan array binding signal (z-score),[28],-0.998
same,glycan array binding signal (z-score),[29],0.979
same,glycan array binding signal (z-score),[30],-1.1
same,glycan array binding signal (z-score),[31],-0.515

# Reformatted with bars between the fields: entries from further up.
binder | measurement | setting | value
B1 | glycan array binding signal (z-score) | [1] | -0.409
same | glycan array binding signal (z-score) | [5] | 0.521
same | glycan array binding signal (z-score) | [13] | -0.891
same | glycan array binding signal (z-score) | [23] | 1.59
same | glycan array binding signal (z-score) | [24] | -0.373
same | glycan array binding signal (z-score) | [29] | 0.979
same | glycan array binding signal (z-score) | [31] | -0.515
